Source: PubChem BioAssay AID1259254 (NCATS, 2017)

Aim: 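Gene knock-downs that lead to re-replication, shown by excess G2 DNA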 (primary screen)
Cells: human HCT116 colorectal cancer cells
Knock-down reagent: single siRNA against human genes
Time to read-out: 3 days
Detection: 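Imaged Hoechst DNA stain sorts each cell into a cycle phase by DNA amount; per plate, G2 fraction set to 0% for non-targeting and 100% for GMNN siRNA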
Scale: G2 robust z-score and G2 cells, % of GMNN control: higher = more G2 cells, more excess DNA replication; raw share of cells in G2: higher = larger share of cells with G2 DNA content
Hit rule: 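An siRNA counts as active if its G2 robust z-score lies at least 5 MADs above the screen median; here such calls match roughly 38% of GMNN control or more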
This is an unselected part of about 59,000 reagents tested. About 1,550 of them (2.6%) count as active. 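G2 share is only a proxy for re-replication; each gene was hit by three separate siRNAs, and active genes were retested.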 The raw values are shown without normalisation. Entries without a mark were called inactive. The numbers tell different reagents against one gene apart. The record does not give: the amount of reagent.

| G2 robust z-score | G2 cells, % of GMNN control | raw share of cells in G2 (%) | target | reagent |
| --- | --- | --- | --- | --- |
| -0.589 | -1.18 | 4.62 | ITGB3 | 1 |
| 4.57 | 35.1 | 19.1 | ITGB3 | 2 |
| -0.467 | -0.319 | 4.08 | ITGB3 | 3 |
| 1.11 | 10.8 | 9.31 | CASP4 | 1 |
| -0.982 | -3.94 | 3.51 | CASP4 | 2 |
| -0.748 | -2.3 | 3.05 | CASP4 | 3 |
| 0.507 | 6.53 | 5.1 | AFF4 | 1 |
| -0.387 | 0.246 | 6.02 | AFF4 | 2 |
| 0.21 | 4.44 | 5.03 | AFF4 | 3 |
| 4.64 | 35.6 | 18 | COX10 | 1 |
| 1.31 | 12.2 | 8.28 | COX10 | 2 |
| 1.91 | 16.4 | 10.8 | COX10 | 3 |
| 3.67 | 28.8 | 14.8 | IFNA21 | 1 |
| -0.849 | -3 | 3.89 | IFNA21 | 2 |
| 6.17 (active) | 46.4 | 21.1 | IFNA21 | 3 |
| 0.848 | 8.93 | 4.82 | PLEKHS1 | 1 |
| 1.1 | 10.7 | 8.9 | PLEKHS1 | 2 |
| 0.509 | 6.55 | 7.17 | PLEKHS1 | 3 |
| -0.478 | -0.395 | 4.53 | TBX2 | 1 |
| -1.13 | -5.01 | 2.48 | TBX2 | 2 |
| 5.67 (active) | 42.8 | 19.7 | TBX2 | 3 |
| 0.00497 | 3 | 5.77 | G6PC1 | 1 |
| -1.63 | -8.47 | 1.75 | G6PC1 | 2 |
| 0.952 | 9.67 | 6.41 | G6PC1 | 3 |
| 3.52 | 27.7 | 14.2 | RPS8P4 | 1 |
| 0.653 | 7.56 | 6.03 | RPS8P4 | 2 |
| -0.951 | -3.72 | 1.86 | RPS8P4 | 3 |
| -0.888 | -3.28 | 1.96 | CADPS2 | 1 |
| -0.307 | 0.811 | 3.45 | CADPS2 | 2 |
| 0.274 | 4.89 | 5.24 | CADPS2 | 3 |
| 0.0777 | 3.51 | 7.1 | HTR2A | 1 |
| 0.602 | 7.2 | 7.04 | HTR2A | 2 |
| -0.559 | -0.968 | 2.97 | HTR2A | 3 |
| -1.1 | -4.74 | 2.52 | BRD9 | 1 |
| -0.359 | 0.442 | 4.81 | BRD9 | 2 |
| -0.71 | -2.03 | 2.16 | BRD9 | 3 |
| -0.373 | 0.343 | 3.73 | LCE4A | 1 |
| 0.241 | 4.66 | 4.52 | LCE4A | 2 |
| -0.47 | -0.339 | 2.65 | LCE4A | 3 |
| -0.952 | -3.73 | 2.49 | OR8K1 | 1 |
| -0.0911 | 2.33 | 4.42 | OR8K1 | 2 |
| 2.32 | 19.3 | 12.9 | OR8K1 | 3 |
| -1.06 | -4.49 | 4.46 | EPPIN | 1 |
| -0.221 | 1.41 | 4.95 | EPPIN | 2 |
| 2.51 | 20.6 | 12.9 | EPPIN | 3 |
| -0.611 | -1.33 | 3.57 | EEF1DP3 | 1 |
| 0.52 | 6.62 | 5.46 | EEF1DP3 | 2 |
| -0.323 | 0.698 | 3.43 | EEF1DP3 | 3 |
| 1.39 | 12.8 | 7.97 | CLP1 | 1 |
| -0.544 | -0.859 | 5.32 | CLP1 | 2 |
| -0.373 | 0.346 | 6.61 | CLP1 | 3 |
| -0.737 | -2.21 | 4.24 | ITGA2B | 1 |
| -0.456 | -0.243 | 4.11 | ITGA2B | 2 |
| 0.986 | 9.9 | 9.45 | ITGA2B | 3 |
| -0.668 | -1.73 | 4.34 | CSTF3 | 1 |
| -1.17 | -5.28 | 3.06 | CSTF3 | 2 |
| 1.06 | 10.4 | 7.68 | CSTF3 | 3 |
| 0.796 | 8.57 | 5.64 | MIR503HG | 1 |
| 0.148 | 4.01 | 5.79 | MIR503HG | 2 |
| 1.64 | 14.5 | 7.54 | MIR503HG | 3 |
| 0.988 | 9.92 | 8.75 | LRRFIP1 | 1 |
| -0.835 | -2.91 | 3.22 | LRRFIP1 | 2 |
| 0.634 | 7.43 | 7.37 | LRRFIP1 | 3 |
| 1.58 | 14.1 | 7.64 | POLR2J4 | 1 |
| 0.854 | 8.98 | 5.13 | POLR2J4 | 2 |
| 3.12 | 25 | 12.4 | POLR2J4 | 3 |
| -1.34 | -6.48 | 1.99 | PTBP1 | 1 |
| -0.664 | -1.71 | 4.03 | PTBP1 | 2 |
| 1.22 | 11.5 | 8.94 | PTBP1 | 3 |
